Test results from paper PMC2794028.
No constants are given. Whether binding was seen depends on the method and setting. Where a sequence is shown, tags or fusion partners need not be part of it.

Protein sequences, listed by entry. Tags and fused reporters are not part of them.
UniProt P11974: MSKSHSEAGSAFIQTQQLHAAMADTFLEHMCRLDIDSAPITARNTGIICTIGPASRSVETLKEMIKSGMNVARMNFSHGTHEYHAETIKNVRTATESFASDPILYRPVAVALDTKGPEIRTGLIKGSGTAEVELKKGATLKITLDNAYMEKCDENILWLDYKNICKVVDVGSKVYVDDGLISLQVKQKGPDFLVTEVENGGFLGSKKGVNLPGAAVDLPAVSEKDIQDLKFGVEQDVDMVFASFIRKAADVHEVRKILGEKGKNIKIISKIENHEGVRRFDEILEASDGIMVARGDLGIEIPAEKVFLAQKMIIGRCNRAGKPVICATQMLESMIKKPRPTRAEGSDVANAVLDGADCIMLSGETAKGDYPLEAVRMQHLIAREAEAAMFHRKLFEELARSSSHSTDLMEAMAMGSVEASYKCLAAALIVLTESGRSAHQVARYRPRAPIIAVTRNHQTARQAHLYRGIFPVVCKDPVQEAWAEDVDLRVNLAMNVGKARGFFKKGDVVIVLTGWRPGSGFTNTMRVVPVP

Target: rabbit muscle pyruvate kinase (rabbit) (UniProt P11974)
Experiment: ELISA; wells coated with 100 μl of 100 nM plasminogen (or rabbit muscle pyruvate kinase), over-coated with skimmed milk; 100 μl of 6 × His-tagged r-Pfen in different concentrations, 4 hours; detected with mouse anti r-Pfen serum (1:2000); OD at 405 nm; both purified

B1: recombinant 6 × His-tagged P. falciparum enolase (enzyme, UniProt Q8IJN7 1-446)
chain: MAHVITRINAREILDSRGNPTVEVDLETNLGIFRAAVPSGASTGIYEALELRDNDKSRYLGKGVQKAIKNINEIIAPKLIGMNCTEQKKIDNLMVEELDGSKNEWGWSKSKLGANAILAISMAVCRAGAAANKVSLYKYLAQLAGKKSDQMVLPVPCLNVINGGSHAGNKLSFQEFMIVPVGAPSFKEALRYGAEVYHTLKSEIKKKYGIDATNVGDEGGFAPNILNANEALDLLVTAIKSAGYEGKVKIAMDVAASEFYNSENKTYDLDFKTPNNDKSLVKTGAQLVDLYIDLVKKYPIVSIEDPFDQDDWENYAKLTAAIGKDVQIVGDDLLVTNPTRITKALEKNACNALLLKVNQIGSITEAIEACLLSQKNNWGVMVSHRSGETEDVFIADLVVALRTGQIKTGAPCRSERNAKYNQLLRIEESLGNNAVFAGEKFRLQLN
For B1, which binding is on record?
Its binding is “no binding”.
